Structures can show the parent of a compound that is named as a salt.
Assay: Introduction of compounds into nanosheets, absorbance of supernatant after centrifugation
Type: physicochemical
Procedure: (§1) 700 Microliters of an aqueous solution (300 μg/mL) of 5-fluorouracil was added to 500 mg of the nanosheet dispersion-1 obtained in Example 1, and the mixture was shaken at room temperature for 48 hours. The nanosheet dispersion having introduced thereinto 5-fluorouracil was centrifuged (at 12,000 rpm for 10 minutes), and the supernatant liquid was collected.
The introduction amount of 5-fluorouracil was determined by the same process as that of Example 4 except that a concentration-absorbance calibration curve was produced at a predetermined wavelength (λ=270 nm).
as §1, with “(100” for “(300”, “hydrocortisone” for “5-fluorouracil”
The introduction amount of hydrocortisone was determined by the same process as that of Example 4 except that a concentration-absorbance calibration curve was produced at a predetermined wavelength (λ250 nm).
as §1, with “500” for “700”, “(30” for “(300”, “betamethasone” for “5-fluorouracil”, “100” for “500”
The introduction amount of betamethasone was determined by the same process as that of Example 4 except that a concentration-absorbance calibration curve was produced at a predetermined wavelength (λ=250 nm).
as §1, with “500” for “700”, “(30” for “(300”, “menadione” for “5-fluorouracil”, “100” for “500”
The introduction amount of menadione was determined by the same process as that of Example 4 except that a concentration-absorbance calibration curve was produced at a predetermined wavelength (λ=250 nm).

introduction amount relative to the weight of the nanosheets (Examples 4-8, crosslinked β-cyclodextrin nanosheets): 0.70 wt %
Weight of introduced compound/weight of nanosheets (Table 1, crosslinked β-cyclodextrin nanosheets): 0.60%
Concentration of introduced compound before introduction (in nanosheet dispersion, defined in consideration of dilution with moisture in the dispersion, nanosheets 43 mg/mL (Examples 4-6) or 17 mg/mL (Examples 7-8)): 304 µg/mL
amount of compound introduced into the nanosheets (reduction in concentration before and after introduction) (nanosheets 43 mg/mL (Examples 4-6) or 17 mg/mL (Example 8)): 304 µg/mL
Concentration of introduced compound after introduction (supernatant after shaking at room temperature 48 hours and centrifugation, absorbance, nanosheets 43 mg/mL (Examples 4-6) or 17 mg/mL (Examples 7-8)): 0 ng/mL
Compound: COc1cc2c(cc1OC)C(=O)C(CC1CCN(Cc3ccccc3)CC1)C2 (centres unmarked) [Donepezil hydrochloride, donepezil hydrochloride]
